Consider one molecule from patent US20210393689A1 (JUNO THERAPEUTICS, published 2021).

Results are given in words; binding and its absence hold for the method and conditions named. Some entries that bind do so weakly or less than the wild type.

The assay addresses T1, murine GPRC5D (murine, UniProt Q9JIL6 1-344).
T1 construct: whole, on cells; also called mGPRC5D; mouse GPRC5D
T1 sequence (looked up): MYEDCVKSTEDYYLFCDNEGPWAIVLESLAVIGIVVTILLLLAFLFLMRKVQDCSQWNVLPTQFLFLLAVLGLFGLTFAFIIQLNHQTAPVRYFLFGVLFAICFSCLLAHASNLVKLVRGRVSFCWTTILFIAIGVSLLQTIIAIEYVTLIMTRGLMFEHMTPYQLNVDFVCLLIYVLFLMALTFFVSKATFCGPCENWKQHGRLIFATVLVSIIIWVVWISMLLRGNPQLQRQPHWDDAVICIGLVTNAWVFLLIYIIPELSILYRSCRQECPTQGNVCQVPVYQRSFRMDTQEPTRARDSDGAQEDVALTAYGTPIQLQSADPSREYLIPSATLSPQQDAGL
Description: Jurkat Nur77-RFP reporter activation after 1:1 co-culture with K562 cells expressing the target (indirect read-out).

B1: GPRC5D-205 VL/VH - long (anti-GPRC5D CAR) (protein)
chain: QSVVTQPPSMSAAPGQQVTISCSGGNSNIERNYVSWYLQLPGTAPKLVIFDNDRRPSGIPDRFSGSKSGTSATLGITGLQTGDEADYYCGTWDSSLRGWVFGGGTKLTVLGSRGGGGSGGGGSGGGGSLEMAEVQLVESGGGLIQPGGSLRLSCAASGFTFSNYAMNWVRQAPGKGLEWVSTINGRGSSTIYADSVKGRFTISRDNSKNTLYLQMNSLRAEDTATYYCARYISRGLGDSWGQGTLVTVESKYGPPCPPCPAPPVAGPSVFLFPPKPKDTLMISRTPEVTCVVVDVSQEDPEVQFNWYVDGVEVHNAKTKPREEQFQSTYRVVSVLTVLHQDWLNGKEYKCKVSNKGLPSSIEKTISKAKGQPREPQVYTLPPSQEEMTKNQVSLTCLVKGFYPSDIAVEWESNGQPENNYKTTPPVLDSDGSFFLYSRLTVDKSRWQEGNVFSCSVMHEALHNHYTQKSLSLSLGKMFWVLVVVGGVLACYSLLVTVAFIIFWVKRGRKKLLYIFKQPFMRPVQTTQEEDGCSCRFPEEEEGGCELRVKFSRSADAPAYQQGQNQLYNELNLGRREEYDVLDKRRGRDPEMGGKPRRKNPQEGLYNELQKDKMAEAYSEIGMKGERRRGKGHDGLYQGLSTATKDTYDALHMQALPPR
For B1, the binding result is given as “binds”.
